Where a name gives a salt, the structure may show the parent alone. The list shows a part of the results. The calls rarely recur for the same compound in another form.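 Kinases, fused to nanoluciferase, were expressed in K562 cells; luminescence was measured every 4 h from 2 to 18 h as percent of control (DMSO = 100%, positive control = 0%). A time point is decreased if signal falls significantly (2 sigma). Hits were called by the authors by a rule that is not shown; the count of time points alone does not decide it.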
Tests used:
Conditions in all cases: K562; 2-18 h
[1] = target: STK38 (UniProt Q15208); experiment: kinase-Nluc reporter destabilization hit call (1 = scored as downregulated) (binary); higher = compound decreases kinase abundance
[2] = target: SYK (UniProt P43405); experiment: as above
[3] = target: TEC (UniProt P42680); experiment: as above
[4] = target: TYK2 (UniProt P29597); experiment: as above
[5] = target: ULK3 (UniProt Q6PHR2); experiment: as above
[6] = target: YES1 (UniProt P07947); experiment: as above
[7] = target: ZAK (UniProt Q9NYL2); experiment: as above
[8] = target: ZAP70 (UniProt P43403); experiment: as above
[9] = target: ABL1 (UniProt P00519); experiment: number of time points (of 5) at which kinase-Nluc abundance scored as decreased, DMSO-normalised (count); higher = more persistent destabilization
[10] = target: AKT1 (UniProt P31749); experiment: as above
[11] = target: ALK (UniProt Q9UM73); experiment: as above
[12] = target: ARAF (UniProt P10398); experiment: as above
[13] = target: AURKA (UniProt O14965); experiment: as above
[14] = target: AURKB (UniProt Q96GD4); experiment: as above
[15] = target: AURKC (UniProt Q9UQB9); experiment: as above
[16] = target: BLK (UniProt P51451); experiment: as above
[17] = target: BMX (UniProt P51813); experiment: as above
[18] = target: BRAF (UniProt P15056); experiment: as above
[19] = test system: BRAF_V600E; experiment: as above
[20] = target: BTK (UniProt Q06187); experiment: as above

The chains behind the UniProt entries cited, without tags or fusion partners. Where a name states a change or a piece, a line headed by the entry shows the natural chain unless it says otherwise.
UniProt P42680: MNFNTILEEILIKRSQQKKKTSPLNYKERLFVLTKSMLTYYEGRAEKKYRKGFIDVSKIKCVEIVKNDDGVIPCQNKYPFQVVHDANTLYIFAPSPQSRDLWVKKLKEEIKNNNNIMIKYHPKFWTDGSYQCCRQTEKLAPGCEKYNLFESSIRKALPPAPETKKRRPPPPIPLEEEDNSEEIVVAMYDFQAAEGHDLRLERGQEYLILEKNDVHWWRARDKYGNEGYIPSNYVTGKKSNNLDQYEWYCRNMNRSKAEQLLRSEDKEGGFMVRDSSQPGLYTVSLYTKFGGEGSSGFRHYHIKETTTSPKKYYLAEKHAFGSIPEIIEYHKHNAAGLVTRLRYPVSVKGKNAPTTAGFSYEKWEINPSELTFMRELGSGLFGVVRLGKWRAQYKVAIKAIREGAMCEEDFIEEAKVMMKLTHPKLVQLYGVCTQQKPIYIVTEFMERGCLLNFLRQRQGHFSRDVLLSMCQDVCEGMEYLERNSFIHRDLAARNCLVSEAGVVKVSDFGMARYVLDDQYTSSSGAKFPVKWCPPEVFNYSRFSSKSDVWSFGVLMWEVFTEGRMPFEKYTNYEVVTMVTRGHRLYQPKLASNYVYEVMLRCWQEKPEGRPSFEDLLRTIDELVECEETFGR
UniProt P29597: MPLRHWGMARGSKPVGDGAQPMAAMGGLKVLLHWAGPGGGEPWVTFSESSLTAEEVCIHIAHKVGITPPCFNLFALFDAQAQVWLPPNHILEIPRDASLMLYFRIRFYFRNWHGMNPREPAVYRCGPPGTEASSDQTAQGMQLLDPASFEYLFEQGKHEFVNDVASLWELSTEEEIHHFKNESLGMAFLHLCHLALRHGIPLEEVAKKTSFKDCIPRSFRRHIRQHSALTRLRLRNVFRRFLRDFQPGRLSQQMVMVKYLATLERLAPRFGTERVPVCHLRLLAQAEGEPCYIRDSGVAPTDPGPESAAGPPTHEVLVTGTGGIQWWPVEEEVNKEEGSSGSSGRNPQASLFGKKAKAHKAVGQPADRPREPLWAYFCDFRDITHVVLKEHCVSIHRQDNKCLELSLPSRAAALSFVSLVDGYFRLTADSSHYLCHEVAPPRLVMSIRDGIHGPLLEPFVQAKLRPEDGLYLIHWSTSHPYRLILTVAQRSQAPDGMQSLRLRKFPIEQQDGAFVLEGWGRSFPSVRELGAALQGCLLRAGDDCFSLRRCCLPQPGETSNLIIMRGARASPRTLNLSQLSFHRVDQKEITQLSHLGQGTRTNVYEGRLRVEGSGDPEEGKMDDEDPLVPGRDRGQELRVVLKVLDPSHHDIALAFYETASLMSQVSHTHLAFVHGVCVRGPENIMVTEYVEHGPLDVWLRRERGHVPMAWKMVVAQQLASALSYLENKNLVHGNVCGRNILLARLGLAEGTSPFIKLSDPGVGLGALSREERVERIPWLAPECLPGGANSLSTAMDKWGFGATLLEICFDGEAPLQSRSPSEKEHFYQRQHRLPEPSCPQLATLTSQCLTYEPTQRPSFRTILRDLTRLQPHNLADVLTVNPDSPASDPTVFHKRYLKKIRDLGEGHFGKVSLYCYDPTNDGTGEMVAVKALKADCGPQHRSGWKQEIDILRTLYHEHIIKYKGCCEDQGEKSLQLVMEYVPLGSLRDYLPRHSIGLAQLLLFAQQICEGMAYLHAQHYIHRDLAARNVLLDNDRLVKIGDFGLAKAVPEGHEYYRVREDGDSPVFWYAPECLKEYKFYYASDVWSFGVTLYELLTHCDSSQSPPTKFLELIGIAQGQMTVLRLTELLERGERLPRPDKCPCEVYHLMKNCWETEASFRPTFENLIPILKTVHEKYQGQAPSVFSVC
UniProt Q6PHR2: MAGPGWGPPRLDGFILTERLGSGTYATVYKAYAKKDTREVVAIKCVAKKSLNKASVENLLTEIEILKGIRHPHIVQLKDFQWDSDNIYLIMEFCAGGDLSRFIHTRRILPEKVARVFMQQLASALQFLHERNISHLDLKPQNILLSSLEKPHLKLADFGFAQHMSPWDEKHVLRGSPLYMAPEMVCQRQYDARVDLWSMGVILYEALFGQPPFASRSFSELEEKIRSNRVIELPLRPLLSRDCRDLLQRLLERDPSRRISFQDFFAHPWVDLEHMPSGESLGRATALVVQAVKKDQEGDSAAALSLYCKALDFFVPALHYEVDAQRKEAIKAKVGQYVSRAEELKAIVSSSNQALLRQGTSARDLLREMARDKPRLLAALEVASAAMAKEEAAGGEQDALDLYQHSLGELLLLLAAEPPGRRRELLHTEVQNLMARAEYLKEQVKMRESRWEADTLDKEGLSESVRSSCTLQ
UniProt P07947, whole entry, looked up: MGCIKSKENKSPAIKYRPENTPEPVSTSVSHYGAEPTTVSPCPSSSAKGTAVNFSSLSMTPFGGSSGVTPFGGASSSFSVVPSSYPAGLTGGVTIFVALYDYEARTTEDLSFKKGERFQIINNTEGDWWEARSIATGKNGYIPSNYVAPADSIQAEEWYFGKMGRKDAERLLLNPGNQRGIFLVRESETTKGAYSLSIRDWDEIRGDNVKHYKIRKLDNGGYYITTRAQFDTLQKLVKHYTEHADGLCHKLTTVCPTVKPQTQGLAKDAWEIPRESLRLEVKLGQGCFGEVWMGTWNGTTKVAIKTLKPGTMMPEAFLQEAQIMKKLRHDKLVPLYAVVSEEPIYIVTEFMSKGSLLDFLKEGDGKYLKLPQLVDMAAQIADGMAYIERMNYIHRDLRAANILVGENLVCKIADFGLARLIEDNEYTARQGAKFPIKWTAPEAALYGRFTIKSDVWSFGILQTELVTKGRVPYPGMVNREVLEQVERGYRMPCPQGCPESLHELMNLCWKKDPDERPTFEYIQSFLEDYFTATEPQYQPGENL
UniProt P43403: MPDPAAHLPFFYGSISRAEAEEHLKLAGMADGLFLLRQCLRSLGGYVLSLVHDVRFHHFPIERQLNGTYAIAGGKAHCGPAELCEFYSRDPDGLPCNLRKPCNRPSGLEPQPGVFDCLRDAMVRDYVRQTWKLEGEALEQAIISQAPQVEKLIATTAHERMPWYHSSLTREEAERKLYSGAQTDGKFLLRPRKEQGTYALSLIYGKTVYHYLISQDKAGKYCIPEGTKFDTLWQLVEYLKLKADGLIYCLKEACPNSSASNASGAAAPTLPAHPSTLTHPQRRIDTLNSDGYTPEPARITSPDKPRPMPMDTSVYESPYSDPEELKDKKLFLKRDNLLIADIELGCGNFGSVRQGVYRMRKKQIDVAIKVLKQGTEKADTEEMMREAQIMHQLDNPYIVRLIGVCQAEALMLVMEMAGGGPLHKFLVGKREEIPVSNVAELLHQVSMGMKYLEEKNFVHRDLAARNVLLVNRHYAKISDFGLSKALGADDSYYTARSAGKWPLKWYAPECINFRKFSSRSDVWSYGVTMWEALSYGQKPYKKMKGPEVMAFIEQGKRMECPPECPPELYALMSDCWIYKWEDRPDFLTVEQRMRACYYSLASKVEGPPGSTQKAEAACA
UniProt P00519, whole entry: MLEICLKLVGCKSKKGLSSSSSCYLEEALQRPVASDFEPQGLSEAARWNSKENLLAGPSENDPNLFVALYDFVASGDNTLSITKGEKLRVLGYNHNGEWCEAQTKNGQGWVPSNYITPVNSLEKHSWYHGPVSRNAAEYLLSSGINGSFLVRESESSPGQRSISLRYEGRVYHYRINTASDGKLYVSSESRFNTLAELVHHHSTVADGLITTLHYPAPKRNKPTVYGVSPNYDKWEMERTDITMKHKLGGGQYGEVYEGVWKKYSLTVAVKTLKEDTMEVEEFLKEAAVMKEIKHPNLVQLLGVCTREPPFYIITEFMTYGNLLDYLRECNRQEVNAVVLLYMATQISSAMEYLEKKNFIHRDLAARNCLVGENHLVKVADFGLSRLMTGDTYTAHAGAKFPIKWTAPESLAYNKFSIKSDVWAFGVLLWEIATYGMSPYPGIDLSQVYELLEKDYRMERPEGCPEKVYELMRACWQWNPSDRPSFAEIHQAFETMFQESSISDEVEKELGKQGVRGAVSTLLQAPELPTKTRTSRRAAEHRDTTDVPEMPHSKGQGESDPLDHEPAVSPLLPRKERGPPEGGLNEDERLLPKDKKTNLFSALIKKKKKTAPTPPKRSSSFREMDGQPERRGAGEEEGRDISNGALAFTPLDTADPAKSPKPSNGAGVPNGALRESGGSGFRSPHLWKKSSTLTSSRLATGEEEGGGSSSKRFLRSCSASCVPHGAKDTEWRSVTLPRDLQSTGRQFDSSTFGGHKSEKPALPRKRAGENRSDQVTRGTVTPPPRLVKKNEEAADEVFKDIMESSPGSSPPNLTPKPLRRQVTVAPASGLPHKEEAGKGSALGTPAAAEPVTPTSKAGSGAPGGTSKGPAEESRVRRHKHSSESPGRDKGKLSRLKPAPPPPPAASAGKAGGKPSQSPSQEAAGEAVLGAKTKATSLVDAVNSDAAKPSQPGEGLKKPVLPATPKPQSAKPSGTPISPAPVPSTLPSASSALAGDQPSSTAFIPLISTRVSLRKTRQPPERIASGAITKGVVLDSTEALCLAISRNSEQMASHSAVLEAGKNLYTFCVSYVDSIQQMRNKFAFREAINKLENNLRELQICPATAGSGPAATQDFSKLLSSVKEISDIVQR
UniProt P31749: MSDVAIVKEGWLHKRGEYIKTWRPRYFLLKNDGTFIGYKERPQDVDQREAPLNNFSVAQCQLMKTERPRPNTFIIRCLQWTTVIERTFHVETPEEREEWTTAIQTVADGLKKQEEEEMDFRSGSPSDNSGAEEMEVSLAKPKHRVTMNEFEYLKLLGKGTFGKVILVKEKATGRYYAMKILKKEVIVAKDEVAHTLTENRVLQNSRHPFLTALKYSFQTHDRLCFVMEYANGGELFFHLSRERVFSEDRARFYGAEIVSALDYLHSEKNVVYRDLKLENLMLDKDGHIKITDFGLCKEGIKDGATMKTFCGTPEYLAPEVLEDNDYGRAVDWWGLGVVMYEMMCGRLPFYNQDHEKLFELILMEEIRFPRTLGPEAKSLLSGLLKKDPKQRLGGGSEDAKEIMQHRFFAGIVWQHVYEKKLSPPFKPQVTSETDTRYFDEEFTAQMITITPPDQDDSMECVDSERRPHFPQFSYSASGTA
UniProt O14965: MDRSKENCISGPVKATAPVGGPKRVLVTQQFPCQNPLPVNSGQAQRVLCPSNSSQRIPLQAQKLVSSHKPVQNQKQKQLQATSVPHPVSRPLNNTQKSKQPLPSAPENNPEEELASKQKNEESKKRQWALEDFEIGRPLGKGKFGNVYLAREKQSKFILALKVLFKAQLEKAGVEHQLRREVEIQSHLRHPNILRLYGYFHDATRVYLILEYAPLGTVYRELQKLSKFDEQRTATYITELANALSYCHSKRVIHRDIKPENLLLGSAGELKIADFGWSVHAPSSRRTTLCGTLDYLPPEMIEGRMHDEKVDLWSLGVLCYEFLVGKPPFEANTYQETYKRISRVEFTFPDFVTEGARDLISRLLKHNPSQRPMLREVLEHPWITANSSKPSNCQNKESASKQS
UniProt Q9UQB9: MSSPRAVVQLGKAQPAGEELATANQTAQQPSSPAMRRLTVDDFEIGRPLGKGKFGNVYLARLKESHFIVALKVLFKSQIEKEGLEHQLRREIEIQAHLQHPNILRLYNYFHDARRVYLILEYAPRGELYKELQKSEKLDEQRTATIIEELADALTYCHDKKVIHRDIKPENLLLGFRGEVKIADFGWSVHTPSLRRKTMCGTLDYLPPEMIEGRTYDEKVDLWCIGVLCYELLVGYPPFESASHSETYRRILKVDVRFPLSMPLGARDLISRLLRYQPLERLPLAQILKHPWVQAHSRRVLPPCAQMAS
UniProt P51813: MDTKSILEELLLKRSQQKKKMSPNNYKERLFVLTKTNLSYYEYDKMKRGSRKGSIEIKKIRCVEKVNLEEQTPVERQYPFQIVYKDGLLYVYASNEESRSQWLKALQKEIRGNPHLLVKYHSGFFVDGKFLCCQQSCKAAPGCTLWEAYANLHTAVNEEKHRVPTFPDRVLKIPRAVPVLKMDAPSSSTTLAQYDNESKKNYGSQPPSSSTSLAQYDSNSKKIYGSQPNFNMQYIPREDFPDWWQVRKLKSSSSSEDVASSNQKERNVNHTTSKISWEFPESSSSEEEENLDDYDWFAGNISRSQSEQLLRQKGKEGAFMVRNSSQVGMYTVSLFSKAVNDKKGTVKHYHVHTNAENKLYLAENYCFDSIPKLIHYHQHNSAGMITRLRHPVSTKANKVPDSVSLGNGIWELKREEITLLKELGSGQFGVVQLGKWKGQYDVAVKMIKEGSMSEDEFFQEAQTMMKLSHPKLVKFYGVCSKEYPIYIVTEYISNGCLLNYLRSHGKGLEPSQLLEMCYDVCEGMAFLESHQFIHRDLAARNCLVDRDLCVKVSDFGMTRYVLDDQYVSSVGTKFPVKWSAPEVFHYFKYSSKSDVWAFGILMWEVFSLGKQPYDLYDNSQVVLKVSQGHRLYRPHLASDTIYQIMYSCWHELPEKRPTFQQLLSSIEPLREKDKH

| SMILES | kinase-Nluc reporter destabilization hit call [1] | kinase-Nluc reporter destabilization hit call [2] | kinase-Nluc reporter destabilization hit call [3] | kinase-Nluc reporter destabilization hit call [4] | kinase-Nluc reporter destabilization hit call [5] | kinase-Nluc reporter destabilization hit call [6] | kinase-Nluc reporter destabilization hit call [7] | kinase-Nluc reporter destabilization hit call [8] | number of time points [9] | number of time points [10] | number of time points [11] | number of time points [12] | number of time points [13] | number of time points [14] | number of time points [15] | number of time points [16] | number of time points [17] | number of time points [18] | number of time points [19] | number of time points [20] |
| --- | --- | --- | --- | --- | --- | --- | --- | --- | --- | --- | --- | --- | --- | --- | --- | --- | --- | --- | --- | --- |
| Cc1cccc(-c2[nH]ncc2-c2ccc(F)c(-c3cnn(CCO)c3)c2)n1 (10 µM) | inactive: 0 | inactive: 0 | inactive: 0 | inactive: 0 | inactive: 0 | inactive: 0 | inactive: 0 | inactive: 0 | 0 | 0 | 0 | 0 | 0 | 0 | 0 | 0 | 0 | 0 | 0 | 0 |
| C=C1C(=O)O[C@H]2C[C@H](C)C(/C=C/C(C)=O)=CC[C@H]12 [Xanthatin] (2.5 µM) | inactive: 0 | inactive: 0 | inactive: 0 | inactive: 0 | inactive: 0 | inactive: 0 | inactive: 0 | inactive: 0 | 0 | 0 | 0 | 0 | 0 | 0 | 0 | 0 | 0 | 0 | 0 | 0 |
| CN(CC(=O)N(Cc1ccc(C2CCCCC2)cc1)c1ccc(C(=O)NO)cc1)S(=O)(=O)c1c(F)c(F)c(F)c(F)c1F (2.5 µM) | inactive: 0 | inactive: 0 | inactive: 0 | inactive: 0 | inactive: 0 | inactive: 0 | inactive: 0 | inactive: 0 | 0 | 0 | 0 | 0 | 0 | 0 | 0 | 0 | 0 | 0 | 0 | 0 |
| O=C1N[C@@H](Cc2c[nH]c3ccccc23)C(=O)N2CCC[C@@H]12 [Brevianamide F] (10 µM) | inactive: 0 | inactive: 0 | inactive: 0 | inactive: 0 | inactive: 0 | inactive: 0 | inactive: 0 | inactive: 0 | 0 | 0 | 0 | 0 | 0 | 0 | 0 | 0 | 0 | 0 | 0 | 0 |
| Cc1cccc(Oc2cnc(=O)[nH]c2)c1 [Tolimidone] (10 µM) | inactive: 0 | inactive: 0 | inactive: 0 | inactive: 0 | inactive: 0 | inactive: 0 | inactive: 0 | inactive: 0 | 0 | 0 | 0 | 0 | 0 | 0 | 0 | 0 | 0 | 0 | 0 | 0 |
| c1cc(-c2c[nH]c3nccc(N4CCC[C@@]5(CCCCN5)C4)c23)ncn1 (10 µM) | inactive: 0 | inactive: 0 | inactive: 0 | inactive: 0 | inactive: 0 | inactive: 0 | inactive: 0 | inactive: 0 | 0 | 0 | 0 | 0 | 0 | 0 | 0 | 0 | 0 | 0 | 0 | 0 |
| O=Nc1c(-c2c(O)[nH]c3ccc(F)cc23)[nH]c2ccccc12 [5'-Fluoroindirubinoxime] (10 µM) | inactive: 0 | inactive: 0 | inactive: 0 | inactive: 0 | inactive: 0 | inactive: 0 | inactive: 0 | inactive: 0 | 1 | 0 | 4 | 0 | 4 | 2 | 0 | 0 | 0 | 0 | 0 | 0 |
| CC(C)(O)CNc1ncc(-c2ccnc(Nc3ccnc(Cl)c3)n2)c(CC2CC2)n1 (2.5 µM) | inactive: 0 | inactive: 0 | inactive: 0 | inactive: 0 | inactive: 0 | inactive: 0 | inactive: 0 | inactive: 0 | 0 | 0 | 0 | 0 | 0 | 0 | 0 | 0 | 0 | 0 | 0 | 0 |
| Cc1cc(=O)oc2c(C=O)c(O)ccc12 (10 µM) | inactive: 0 | inactive: 0 | inactive: 0 | inactive: 0 | inactive: 0 | inactive: 0 | inactive: 0 | inactive: 0 | 0 | 0 | 0 | 0 | 0 | 0 | 0 | 0 | 0 | 0 | 0 | 0 |
| CC#CC(=O)Nc1ccc2ncnc(Nc3cccc(Br)c3)c2c1 (10 µM) | inactive: 0 | inactive: 0 | inactive: 0 | inactive: 0 | inactive: 0 | inactive: 0 | inactive: 0 | inactive: 0 | 3 | 0 | 0 | 0 | 0 | 0 | 0 | 0 | 0 | 0 | 0 | 0 |
| COc1ccc2c(OCc3nnc4ccc(-c5ccccc5)nn34)ccnc2c1 (2 µM) | inactive: 0 | inactive: 0 | inactive: 0 | inactive: 0 | inactive: 0 | inactive: 0 | inactive: 0 | inactive: 0 | 0 | 0 | 0 | 0 | 0 | 0 | 0 | 0 | 0 | 0 | 0 | 0 |
| CCN1CCC(n2cc(CNc3cc(Cl)c4ncc(C#N)c(Nc5ccc(F)c(Cl)c5)c4c3)nn2)CC1 [Cot inhibitor-2] (2.5 µM) | inactive: 0 | inactive: 0 | inactive: 0 | inactive: 0 | inactive: 0 | inactive: 0 | inactive: 0 | inactive: 0 | 0 | 0 | 0 | 0 | 0 | 0 | 0 | 0 | 0 | 0 | 0 | 0 |
| C[C@@H](c1ccc(-c2ccccc2)c(F)c1)c1cc(NC(=N)N2CCOCC2)on1 [Rimacalib] (10 µM) | inactive: 0 | inactive: 0 | inactive: 0 | inactive: 0 | inactive: 0 | inactive: 0 | inactive: 0 | inactive: 0 | 0 | 0 | 0 | 0 | 0 | 0 | 0 | 0 | 0 | 0 | 0 | 0 |
| NC(=O)c1ccc(-c2nc(-c3ccc4c(c3)OCCO4)c(-c3ccccn3)[nH]2)cc1 (10 µM) | inactive: 0 | inactive: 0 | inactive: 0 | inactive: 0 | inactive: 0 | inactive: 0 | inactive: 0 | inactive: 0 | 0 | 0 | 0 | 0 | 0 | 0 | 0 | 0 | 0 | 0 | 0 | 0 |
| FC(F)c1nc2ccccc2n1-c1nc(N2CCOCC2)nc(N2CCOCC2)n1 (2 µM) | inactive: 0 | inactive: 0 | inactive: 0 | inactive: 0 | inactive: 0 | inactive: 0 | inactive: 0 | inactive: 0 | 3 | 0 | 0 | 0 | 0 | 0 | 0 | 0 | 0 | 0 | 4 | 0 |
| Cn1nccc1Nc1nccc(-c2ccn([C@H](CO)c3ccc(Cl)c(F)c3)c(=O)c2)n1 [Ravoxertinib hydrochloride] (10 µM) | inactive: 0 | inactive: 0 | inactive: 0 | inactive: 0 | inactive: 0 | inactive: 0 | inactive: 0 | inactive: 0 | 0 | 0 | 0 | 0 | 0 | 0 | 0 | 0 | 0 | 0 | 0 | 0 |
| CCc1c(C(=O)NNC(=O)C(O)c2cc(F)cc(F)c2)ccc(O)c1C (stereo not given) (10 µM) | inactive: 0 | inactive: 0 | inactive: 0 | inactive: 0 | inactive: 0 | inactive: 0 | inactive: 0 | inactive: 0 | 0 | 0 | 0 | 0 | 0 | 0 | 0 | 0 | 0 | 0 | 0 | 0 |
| COc1ccc(Cl)c(Nc2nc3ccccc3nc2NS(=O)(=O)c2cccc(NC(=O)C(C)(C)N)c2)c1 [Pilaralisib] (10 µM) | inactive: 0 | inactive: 0 | inactive: 0 | inactive: 0 | inactive: 0 | inactive: 0 | inactive: 0 | inactive: 0 | 0 | 0 | 0 | 0 | 0 | 0 | 0 | 0 | 0 | 0 | 0 | 0 |
| CNC(=O)c1ccc(C)c(-n2c(C)cc(OCc3ccc(F)cc3F)c(Br)c2=O)c1 (10 µM) | inactive: 0 | inactive: 0 | inactive: 0 | inactive: 0 | inactive: 0 | inactive: 0 | inactive: 0 | inactive: 0 | 0 | 0 | 0 | 0 | 0 | 0 | 0 | 0 | 0 | 0 | 0 | 0 |
| CC1CCc2c(cc(Br)c(F)c2Br)N1C=O (stereo not given) (10 µM) | inactive: 0 | inactive: 0 | inactive: 0 | inactive: 0 | inactive: 0 | inactive: 0 | inactive: 0 | inactive: 0 | 0 | 0 | 0 | 0 | 0 | 0 | 0 | 0 | 0 | 0 | 0 | 0 |
| Nc1nc(F)nc2c1ncn2[C@@H]1O[C@H](CO)[C@@H](O)[C@@H]1O [Fludarabine] (10 µM) | inactive: 0 | inactive: 0 | inactive: 0 | inactive: 0 | inactive: 0 | inactive: 0 | inactive: 0 | inactive: 0 | 0 | 0 | 0 | 0 | 0 | 0 | 0 | 0 | 0 | 0 | 1 | 0 |
| Cc1ccccc1-c1c2nccc(-c3ccc(F)cc3F)c2cc[n+]1[O-] (10 µM) | inactive: 0 | inactive: 0 | inactive: 0 | inactive: 0 | inactive: 0 | inactive: 0 | inactive: 0 | inactive: 0 | 0 | 0 | 0 | 0 | 0 | 0 | 0 | 0 | 0 | 0 | 0 | 0 |

Random excerpt: two records from the list

| SMILES | kinase-Nluc reporter destabilization hit call [1] | kinase-Nluc reporter destabilization hit call [2] | kinase-Nluc reporter destabilization hit call [3] | kinase-Nluc reporter destabilization hit call [4] | kinase-Nluc reporter destabilization hit call [5] | kinase-Nluc reporter destabilization hit call [6] | kinase-Nluc reporter destabilization hit call [7] | kinase-Nluc reporter destabilization hit call [8] | number of time points [9] | number of time points [10] | number of time points [11] | number of time points [12] | number of time points [13] | number of time points [14] | number of time points [15] | number of time points [16] | number of time points [17] | number of time points [18] | number of time points [19] | number of time points [20] |
| --- | --- | --- | --- | --- | --- | --- | --- | --- | --- | --- | --- | --- | --- | --- | --- | --- | --- | --- | --- | --- |
| CC(C)(O)CNc1ncc(-c2ccnc(Nc3ccnc(Cl)c3)n2)c(CC2CC2)n1 (2.5 µM) | inactive: 0 | inactive: 0 | inactive: 0 | inactive: 0 | inactive: 0 | inactive: 0 | inactive: 0 | inactive: 0 | 0 | 0 | 0 | 0 | 0 | 0 | 0 | 0 | 0 | 0 | 0 | 0 |
| O=C1N[C@@H](Cc2c[nH]c3ccccc23)C(=O)N2CCC[C@@H]12 [Brevianamide F] (10 µM) | inactive: 0 | inactive: 0 | inactive: 0 | inactive: 0 | inactive: 0 | inactive: 0 | inactive: 0 | inactive: 0 | 0 | 0 | 0 | 0 | 0 | 0 | 0 | 0 | 0 | 0 | 0 | 0 |

Source: the supplement of paper PMC12823440, “Inhibitors supercharge kinase turnover through native proteolytic circuits” (Nature, 2025)
